Results are given in words; binding and its absence hold for the method and conditions named. A result given as binding can be weak or reduced; the word gives no strength.
Target: MDM2 (UniProt Q00987)
Assay: two-hybrid; Y2H Gold yeast; MDM2 in pGBKT7 as bait, FBXO31 or F-box-mut in PGADT7 as prey; growth and blue colour of colonies on TDO (SD/-Leu/-Trp/-His) and QDO (SD/-Leu/-Trp/-His/-Ade) after three days

Protein sequences, listed by entry. Tags and fused reporters are not part of them. Lines headed by an entry give the natural chain unless they say otherwise; changes in a name come on top.
UniProt Q00987: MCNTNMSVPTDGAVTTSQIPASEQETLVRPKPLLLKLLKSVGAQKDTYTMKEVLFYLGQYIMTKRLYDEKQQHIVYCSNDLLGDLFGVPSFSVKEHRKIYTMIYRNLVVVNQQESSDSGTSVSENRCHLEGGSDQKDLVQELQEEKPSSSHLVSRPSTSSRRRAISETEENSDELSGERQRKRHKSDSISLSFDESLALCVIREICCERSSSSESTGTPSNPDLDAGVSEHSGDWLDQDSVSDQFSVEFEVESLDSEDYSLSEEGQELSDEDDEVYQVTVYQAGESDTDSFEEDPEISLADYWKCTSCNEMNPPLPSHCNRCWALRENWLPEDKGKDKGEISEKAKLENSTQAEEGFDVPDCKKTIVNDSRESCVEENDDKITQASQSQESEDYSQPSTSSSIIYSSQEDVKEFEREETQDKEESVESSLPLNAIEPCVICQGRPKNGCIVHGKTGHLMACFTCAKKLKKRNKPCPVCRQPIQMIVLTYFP
UniProt Q5XUX0: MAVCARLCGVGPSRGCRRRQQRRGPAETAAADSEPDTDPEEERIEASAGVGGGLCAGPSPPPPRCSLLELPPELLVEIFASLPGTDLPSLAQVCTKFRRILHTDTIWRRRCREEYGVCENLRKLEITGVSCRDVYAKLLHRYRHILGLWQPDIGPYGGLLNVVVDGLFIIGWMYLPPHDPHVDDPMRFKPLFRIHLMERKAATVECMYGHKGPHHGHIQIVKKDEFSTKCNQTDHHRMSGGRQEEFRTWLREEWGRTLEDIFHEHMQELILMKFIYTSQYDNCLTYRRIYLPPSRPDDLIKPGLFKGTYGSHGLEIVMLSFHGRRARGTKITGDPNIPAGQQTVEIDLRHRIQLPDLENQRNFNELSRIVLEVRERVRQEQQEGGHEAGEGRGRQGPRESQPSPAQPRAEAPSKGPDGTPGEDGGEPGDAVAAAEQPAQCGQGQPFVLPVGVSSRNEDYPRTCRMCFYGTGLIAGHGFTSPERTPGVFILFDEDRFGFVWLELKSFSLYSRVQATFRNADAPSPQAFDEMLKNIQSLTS

binding: binds
Substance: FBXO31 F-box domain mutant (from UniProt Q5XUX0)
